These are yes or no findings as the source states them, for the method shown. Binding seen in cells or lysates may run through a third protein. Some entries that bind do so weakly or less than the wild type.
Target: T1, Serine/threonine-protein phosphatase 1 regulatory subunit 10 (human (endogenous in MDA-MB-231)) (UniProt Q96QC0)
T1 sequence: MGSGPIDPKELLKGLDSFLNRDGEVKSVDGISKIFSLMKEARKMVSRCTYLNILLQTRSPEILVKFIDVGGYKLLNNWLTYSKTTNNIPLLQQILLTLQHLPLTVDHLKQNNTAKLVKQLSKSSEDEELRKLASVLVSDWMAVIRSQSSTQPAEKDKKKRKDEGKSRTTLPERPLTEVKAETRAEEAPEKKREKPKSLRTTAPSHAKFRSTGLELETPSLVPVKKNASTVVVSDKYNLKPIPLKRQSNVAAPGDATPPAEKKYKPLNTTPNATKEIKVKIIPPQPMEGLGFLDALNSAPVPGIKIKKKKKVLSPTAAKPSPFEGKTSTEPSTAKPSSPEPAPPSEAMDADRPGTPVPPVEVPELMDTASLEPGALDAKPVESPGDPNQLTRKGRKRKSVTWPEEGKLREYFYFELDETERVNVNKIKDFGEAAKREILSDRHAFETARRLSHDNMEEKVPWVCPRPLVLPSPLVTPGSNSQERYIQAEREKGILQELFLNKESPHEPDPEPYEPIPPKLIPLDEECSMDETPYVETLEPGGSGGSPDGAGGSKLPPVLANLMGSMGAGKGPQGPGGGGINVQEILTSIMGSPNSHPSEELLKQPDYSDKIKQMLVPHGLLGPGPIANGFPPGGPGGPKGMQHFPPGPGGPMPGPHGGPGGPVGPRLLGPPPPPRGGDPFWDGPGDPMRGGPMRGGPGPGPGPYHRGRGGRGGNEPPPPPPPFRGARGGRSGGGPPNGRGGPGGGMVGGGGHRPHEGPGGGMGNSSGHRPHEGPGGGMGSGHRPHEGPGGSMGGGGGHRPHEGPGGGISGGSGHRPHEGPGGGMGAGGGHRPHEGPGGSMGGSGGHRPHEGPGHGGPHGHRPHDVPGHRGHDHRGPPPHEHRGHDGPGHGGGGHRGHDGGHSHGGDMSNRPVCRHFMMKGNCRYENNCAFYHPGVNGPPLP
Experiment: co-IP; lysates of control and AEP KD MDA-MB-231 cells (20 mM Tris pH 7.5, 150 mM NaCl, 1 mM EDTA, 1% NP40); anti-PPP1R10 on Dynabeads Protein G, 45 min at RT; immunoblot for WDR82

Sequences of proteins named here, by UniProt entry; tags and fusion partners are left off.
UniProt Q6UXN9: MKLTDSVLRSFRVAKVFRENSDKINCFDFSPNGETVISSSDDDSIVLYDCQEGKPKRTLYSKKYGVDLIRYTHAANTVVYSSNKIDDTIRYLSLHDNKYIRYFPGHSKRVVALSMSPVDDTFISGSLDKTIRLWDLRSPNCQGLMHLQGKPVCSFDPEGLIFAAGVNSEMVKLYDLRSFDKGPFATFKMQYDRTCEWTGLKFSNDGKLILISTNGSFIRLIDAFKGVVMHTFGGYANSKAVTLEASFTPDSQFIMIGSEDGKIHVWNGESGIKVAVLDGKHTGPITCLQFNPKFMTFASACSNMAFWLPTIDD

Substance: WD repeat-containing protein 82 (from UniProt Q6UXN9 1-313)
- binding: binds

From paper PMC11866873
